No constants are given. Whether binding was seen depends on the method and setting. Binding seen in cells or lysates may run through a third protein. Binding calls can cover weak binding; strength is not graded here.
Target: Xenopus HA-NASP Δ525–534 (Xenopus)
Test: co-IP; HA-NASP from wheat germ extract pre-immobilised on anti-HA magnetic beads, incubated with 30 μL 25% NPE (Xenopus nucleoplasmic egg extract) for 1 hour at 4 °C, washed with 2xELB-sucrose; immunoblot

- binding: binds
B1: Xenopus DONSON (endogenous) (protein, UniProt Q5U4U4 1-579)
chain: MAELLPGYSPSFKKPSEILRLSRRRSRSEASKTGLSPFSPGDVIKRVPGLRPFSPGPNKGAGVKRRNPFASLENTVCSPVKRRAETVAEYGAASLEPRALSAVRPSCLGQDSPEPPQFNSVEDVIWGDPLAADADPLVKTESPEKPAPACEIPKGSVTFPADWSLKTRLLFTSSHSFSWADHLKAQEEAQGLVMQCRATAVNLPHSIQEPKLSTDLRCAFQQSLVHWIHPSLPWVQLFPRIGVDRKMAGKNTPWSQDESLQQVLMSEWALSFTSLYNLLKAKLCPYFYVCTYQFTVLFRAAGLAGSDVITAVMSPTTRGLREAMKNEGITFSQPLVEDDTGKKQKKPEAASQGDINPEKENGTAEADEASDESDEDESFSWLEEMGVEDKIKKPDSISIKLRKEKNEVKLDHKPESVVLVKGTNTFTLLNFLINCKSIVAAAGLQAGLPPTLLSPVAFRGATMHALKARSVNVKTRVNSGYKDQFSLEITGPIMPHSLHSLTMLLQSAQRGSFSAGLYTHEPTAVFNTPIHSQAVKEISADLQNCGLHPCTVEQLTQVNELGKLSLRHLEMTDYRYTWK

From publication doi:10.1101/2025.11.10.687652
